Data as given in patent US7579439B2, “Modulation of IL-2- and IL-15-mediated T cell responses” (Beth Israel Deaconess Medical Center, Inc., priority 2000, dated 2009).
At least one structure is not confirmed: it was looked up by name or label, or the drawing left a doubt.

Experiments:
IL-15Rα subunit = experiment: Induction of the IL-15Rα subunit on activated cells; assay type: cell-based
CD4+ and CD8+ T cells = experiment: In vivo graft versus host model, host reactive T cells with IL-2/Fc and rapamycin; settings: three days

CO[C@H]1C[C@@H]2CC[C@@H](C)[C@@](O)(O2)C(=O)C(=O)N2CCCC[C@H]2C(=O)O[C@H]([C@H](C)C[C@@H]2CC[C@@H](O)[C@H](OC)C2)CC(=O)[C@H](C)/C=C(\C)[C@@H](O)[C@@H](OC)C(=O)[C@H](C)C[C@H](C)/C=C/C=C/C=C/1C [rapamycin]
induction of the IL-15Rα subunit (IL-15Rα subunit): not | proliferation of CD4+ and CD8+ T cells in vivo (CD4+ and CD8+ T cells; even in the presence of IL-2/Fc): inhibit the proliferation | expression of IL-2R on dividing T cells in vivo (CD4+ and CD8+ T cells; FACS): allow the expression of a functional IL-2R

C[C@@H]1C[C@H]2[C@@H]3CCC4=CC(=O)C=C[C@]4(C)[C@@]3(F)[C@@H](O)C[C@]2(C)[C@@]1(O)C(=O)CO [dexamethasone]
induction of the IL-15Rα subunit (IL-15Rα subunit): blocked
